Experimental data: the supplement of paper PMC10849652
This is one part of the list.

Chains of the proteins cited; added tags and fusions are not shown. Lines headed by an entry give the natural chain unless they say otherwise; changes in a name come on top.
UniProt O75356: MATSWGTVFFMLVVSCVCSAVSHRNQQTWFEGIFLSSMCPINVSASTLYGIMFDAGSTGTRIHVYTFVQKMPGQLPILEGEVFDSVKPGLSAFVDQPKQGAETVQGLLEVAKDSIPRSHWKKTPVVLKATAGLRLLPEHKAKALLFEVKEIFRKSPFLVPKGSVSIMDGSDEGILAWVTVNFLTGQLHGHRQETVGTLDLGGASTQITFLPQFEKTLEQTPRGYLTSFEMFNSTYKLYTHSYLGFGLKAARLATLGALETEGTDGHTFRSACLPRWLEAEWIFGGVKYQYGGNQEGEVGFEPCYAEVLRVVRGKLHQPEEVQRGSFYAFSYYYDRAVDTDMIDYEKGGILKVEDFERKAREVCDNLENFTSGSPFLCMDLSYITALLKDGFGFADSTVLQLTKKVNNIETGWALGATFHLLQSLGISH
UniProt Q8N6R0: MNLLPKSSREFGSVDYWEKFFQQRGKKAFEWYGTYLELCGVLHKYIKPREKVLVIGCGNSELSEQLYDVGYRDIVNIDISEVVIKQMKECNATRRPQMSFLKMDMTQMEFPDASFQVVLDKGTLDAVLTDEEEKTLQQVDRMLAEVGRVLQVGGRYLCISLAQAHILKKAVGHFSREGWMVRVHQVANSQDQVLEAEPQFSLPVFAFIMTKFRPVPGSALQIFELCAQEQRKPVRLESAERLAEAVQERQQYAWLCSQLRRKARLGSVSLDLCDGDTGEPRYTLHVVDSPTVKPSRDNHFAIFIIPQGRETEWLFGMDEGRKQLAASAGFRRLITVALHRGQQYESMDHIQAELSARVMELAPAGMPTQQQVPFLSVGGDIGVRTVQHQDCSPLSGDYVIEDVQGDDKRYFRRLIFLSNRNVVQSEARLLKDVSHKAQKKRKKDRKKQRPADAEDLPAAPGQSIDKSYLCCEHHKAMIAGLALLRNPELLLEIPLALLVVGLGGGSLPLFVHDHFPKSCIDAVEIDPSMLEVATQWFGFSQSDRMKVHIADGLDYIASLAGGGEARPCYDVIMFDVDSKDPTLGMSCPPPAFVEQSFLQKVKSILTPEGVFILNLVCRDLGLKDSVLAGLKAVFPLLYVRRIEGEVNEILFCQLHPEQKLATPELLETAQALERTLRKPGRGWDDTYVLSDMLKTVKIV
UniProt O75071: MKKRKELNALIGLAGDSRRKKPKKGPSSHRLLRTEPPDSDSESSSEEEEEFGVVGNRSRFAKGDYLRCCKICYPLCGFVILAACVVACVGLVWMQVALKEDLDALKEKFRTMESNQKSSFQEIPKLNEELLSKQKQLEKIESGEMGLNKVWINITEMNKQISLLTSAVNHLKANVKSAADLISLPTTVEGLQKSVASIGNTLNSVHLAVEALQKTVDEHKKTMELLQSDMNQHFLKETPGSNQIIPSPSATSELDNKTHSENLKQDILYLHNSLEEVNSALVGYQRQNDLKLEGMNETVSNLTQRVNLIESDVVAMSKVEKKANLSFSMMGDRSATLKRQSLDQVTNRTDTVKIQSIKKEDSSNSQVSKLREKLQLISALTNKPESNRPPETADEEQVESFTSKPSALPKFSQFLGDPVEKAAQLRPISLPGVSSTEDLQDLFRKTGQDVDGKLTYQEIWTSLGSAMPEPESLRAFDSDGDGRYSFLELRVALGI
UniProt Q32P44: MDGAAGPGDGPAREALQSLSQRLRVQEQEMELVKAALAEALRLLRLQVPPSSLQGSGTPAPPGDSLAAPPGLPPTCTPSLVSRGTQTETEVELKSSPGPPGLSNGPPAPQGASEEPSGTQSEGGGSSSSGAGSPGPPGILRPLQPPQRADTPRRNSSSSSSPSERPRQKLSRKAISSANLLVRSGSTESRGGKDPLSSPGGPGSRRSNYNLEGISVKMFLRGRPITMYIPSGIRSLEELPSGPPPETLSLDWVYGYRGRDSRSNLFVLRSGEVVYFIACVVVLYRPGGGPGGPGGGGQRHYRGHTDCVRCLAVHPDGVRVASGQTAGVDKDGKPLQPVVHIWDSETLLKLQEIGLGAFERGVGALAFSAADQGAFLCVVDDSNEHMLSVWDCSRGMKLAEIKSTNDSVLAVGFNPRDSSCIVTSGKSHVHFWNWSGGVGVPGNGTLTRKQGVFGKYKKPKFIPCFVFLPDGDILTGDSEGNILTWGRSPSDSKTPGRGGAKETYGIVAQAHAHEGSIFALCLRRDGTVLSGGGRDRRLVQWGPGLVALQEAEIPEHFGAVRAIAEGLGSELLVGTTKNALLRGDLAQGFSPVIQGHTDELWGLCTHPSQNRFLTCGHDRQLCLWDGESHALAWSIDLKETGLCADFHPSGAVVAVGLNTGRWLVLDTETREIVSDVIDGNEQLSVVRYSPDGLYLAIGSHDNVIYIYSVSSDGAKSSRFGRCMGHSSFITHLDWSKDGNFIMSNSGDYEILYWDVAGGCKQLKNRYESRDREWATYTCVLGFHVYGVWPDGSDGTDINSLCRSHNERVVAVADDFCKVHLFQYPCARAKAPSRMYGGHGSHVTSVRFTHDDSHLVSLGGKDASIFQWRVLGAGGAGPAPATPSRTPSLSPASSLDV
UniProt Q5NDL2: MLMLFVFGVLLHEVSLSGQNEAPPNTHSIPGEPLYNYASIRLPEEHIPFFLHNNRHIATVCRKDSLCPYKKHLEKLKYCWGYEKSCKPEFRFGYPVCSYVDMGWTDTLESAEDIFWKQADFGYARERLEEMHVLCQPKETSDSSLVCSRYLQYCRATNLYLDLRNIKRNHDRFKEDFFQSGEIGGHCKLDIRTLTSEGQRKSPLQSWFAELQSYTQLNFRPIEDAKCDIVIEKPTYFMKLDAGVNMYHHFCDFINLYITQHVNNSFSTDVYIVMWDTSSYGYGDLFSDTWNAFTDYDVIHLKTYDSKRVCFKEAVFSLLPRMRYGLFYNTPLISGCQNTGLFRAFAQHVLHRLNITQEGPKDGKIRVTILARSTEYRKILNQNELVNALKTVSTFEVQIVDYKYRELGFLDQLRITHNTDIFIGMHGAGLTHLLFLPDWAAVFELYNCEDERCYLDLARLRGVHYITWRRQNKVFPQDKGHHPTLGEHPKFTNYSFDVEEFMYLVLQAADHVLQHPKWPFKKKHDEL
UniProt P54852: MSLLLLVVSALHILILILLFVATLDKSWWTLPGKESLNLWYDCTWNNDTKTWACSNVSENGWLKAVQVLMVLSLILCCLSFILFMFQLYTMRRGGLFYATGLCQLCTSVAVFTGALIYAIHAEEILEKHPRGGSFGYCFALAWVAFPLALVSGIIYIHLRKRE
UniProt Q9NQZ7: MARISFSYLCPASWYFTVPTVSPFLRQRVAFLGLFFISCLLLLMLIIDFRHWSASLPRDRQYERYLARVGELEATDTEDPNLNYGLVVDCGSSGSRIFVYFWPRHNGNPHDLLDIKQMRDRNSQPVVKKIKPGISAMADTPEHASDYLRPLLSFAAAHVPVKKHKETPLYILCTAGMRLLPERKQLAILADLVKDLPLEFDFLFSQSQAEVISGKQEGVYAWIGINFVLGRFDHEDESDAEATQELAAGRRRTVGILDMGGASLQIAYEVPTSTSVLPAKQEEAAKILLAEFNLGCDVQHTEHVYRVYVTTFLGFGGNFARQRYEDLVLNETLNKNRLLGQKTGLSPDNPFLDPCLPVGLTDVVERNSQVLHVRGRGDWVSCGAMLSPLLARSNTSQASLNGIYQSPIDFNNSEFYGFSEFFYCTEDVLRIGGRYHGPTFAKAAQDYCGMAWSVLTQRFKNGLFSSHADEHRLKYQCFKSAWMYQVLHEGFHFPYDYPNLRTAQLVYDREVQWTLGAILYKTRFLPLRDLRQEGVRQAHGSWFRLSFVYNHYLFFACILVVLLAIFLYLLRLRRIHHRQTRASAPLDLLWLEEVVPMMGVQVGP
UniProt Q9GZT9: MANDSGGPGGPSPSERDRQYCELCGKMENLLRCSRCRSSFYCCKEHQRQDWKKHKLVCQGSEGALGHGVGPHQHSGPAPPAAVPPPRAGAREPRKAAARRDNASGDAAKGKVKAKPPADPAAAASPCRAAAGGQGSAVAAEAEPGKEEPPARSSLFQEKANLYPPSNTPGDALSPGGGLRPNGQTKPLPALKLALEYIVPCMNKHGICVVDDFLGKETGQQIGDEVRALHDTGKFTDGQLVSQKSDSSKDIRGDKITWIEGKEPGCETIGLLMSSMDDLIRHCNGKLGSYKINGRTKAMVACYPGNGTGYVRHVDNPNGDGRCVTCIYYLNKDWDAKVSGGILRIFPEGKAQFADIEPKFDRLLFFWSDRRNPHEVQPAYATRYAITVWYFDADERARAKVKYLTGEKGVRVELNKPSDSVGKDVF
UniProt P06730, whole entry, looked up: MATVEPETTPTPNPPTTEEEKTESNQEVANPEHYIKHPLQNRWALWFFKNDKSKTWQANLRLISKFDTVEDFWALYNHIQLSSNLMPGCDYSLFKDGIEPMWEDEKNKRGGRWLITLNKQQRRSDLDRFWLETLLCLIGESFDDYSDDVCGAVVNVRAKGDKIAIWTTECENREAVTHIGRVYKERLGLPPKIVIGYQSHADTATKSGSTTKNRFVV
UniProt Q9NZN4: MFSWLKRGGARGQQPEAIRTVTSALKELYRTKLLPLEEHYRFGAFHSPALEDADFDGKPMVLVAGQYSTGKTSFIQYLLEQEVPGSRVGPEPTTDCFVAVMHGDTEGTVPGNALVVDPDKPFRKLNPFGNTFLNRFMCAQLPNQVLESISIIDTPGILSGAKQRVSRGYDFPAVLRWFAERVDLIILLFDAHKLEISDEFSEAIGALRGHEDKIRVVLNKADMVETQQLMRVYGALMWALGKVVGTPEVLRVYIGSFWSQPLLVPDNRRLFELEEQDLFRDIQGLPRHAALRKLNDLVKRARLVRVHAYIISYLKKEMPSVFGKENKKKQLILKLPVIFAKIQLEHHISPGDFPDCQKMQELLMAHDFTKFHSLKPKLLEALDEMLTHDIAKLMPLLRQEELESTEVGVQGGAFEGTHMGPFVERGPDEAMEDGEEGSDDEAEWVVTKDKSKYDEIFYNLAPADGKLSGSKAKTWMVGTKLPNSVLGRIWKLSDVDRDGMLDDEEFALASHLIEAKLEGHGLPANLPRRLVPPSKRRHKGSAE
UniProt Q9NYP7: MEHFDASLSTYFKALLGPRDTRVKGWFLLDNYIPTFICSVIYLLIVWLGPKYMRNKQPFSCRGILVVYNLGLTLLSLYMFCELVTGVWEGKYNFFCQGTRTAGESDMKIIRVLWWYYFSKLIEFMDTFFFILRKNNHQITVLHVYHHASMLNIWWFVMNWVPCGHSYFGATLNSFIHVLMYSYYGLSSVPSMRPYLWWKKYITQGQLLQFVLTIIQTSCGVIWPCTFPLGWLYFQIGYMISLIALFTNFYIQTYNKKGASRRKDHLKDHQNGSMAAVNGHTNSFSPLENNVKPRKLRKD
UniProt O75354: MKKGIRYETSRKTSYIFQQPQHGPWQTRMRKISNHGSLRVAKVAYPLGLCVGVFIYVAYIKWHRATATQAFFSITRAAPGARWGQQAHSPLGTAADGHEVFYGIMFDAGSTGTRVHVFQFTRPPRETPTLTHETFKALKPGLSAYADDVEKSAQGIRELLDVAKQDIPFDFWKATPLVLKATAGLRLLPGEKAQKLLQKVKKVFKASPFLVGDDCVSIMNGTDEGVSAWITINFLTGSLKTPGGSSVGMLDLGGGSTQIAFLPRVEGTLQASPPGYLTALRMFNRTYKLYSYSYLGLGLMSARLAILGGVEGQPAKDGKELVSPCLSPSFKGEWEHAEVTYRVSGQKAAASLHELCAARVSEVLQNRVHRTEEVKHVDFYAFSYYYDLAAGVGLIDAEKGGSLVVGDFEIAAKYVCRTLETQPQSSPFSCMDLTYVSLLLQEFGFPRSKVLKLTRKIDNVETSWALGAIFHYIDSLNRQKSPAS
UniProt P18146, whole entry, looked up: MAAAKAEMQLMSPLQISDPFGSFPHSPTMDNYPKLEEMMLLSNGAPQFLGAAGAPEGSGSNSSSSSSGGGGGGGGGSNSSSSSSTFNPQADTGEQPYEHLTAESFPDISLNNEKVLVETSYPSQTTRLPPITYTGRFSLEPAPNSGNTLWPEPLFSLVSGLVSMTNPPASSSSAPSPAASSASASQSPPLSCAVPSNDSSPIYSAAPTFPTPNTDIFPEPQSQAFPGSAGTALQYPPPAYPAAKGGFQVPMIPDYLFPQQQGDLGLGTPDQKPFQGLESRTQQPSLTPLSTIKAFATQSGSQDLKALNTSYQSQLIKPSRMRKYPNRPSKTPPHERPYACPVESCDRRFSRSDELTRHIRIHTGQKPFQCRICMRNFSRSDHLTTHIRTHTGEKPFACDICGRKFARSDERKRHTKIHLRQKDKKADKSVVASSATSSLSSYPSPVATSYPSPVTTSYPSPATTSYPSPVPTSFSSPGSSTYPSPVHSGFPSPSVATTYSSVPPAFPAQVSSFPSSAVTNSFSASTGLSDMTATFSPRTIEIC
UniProt Q9BUP0: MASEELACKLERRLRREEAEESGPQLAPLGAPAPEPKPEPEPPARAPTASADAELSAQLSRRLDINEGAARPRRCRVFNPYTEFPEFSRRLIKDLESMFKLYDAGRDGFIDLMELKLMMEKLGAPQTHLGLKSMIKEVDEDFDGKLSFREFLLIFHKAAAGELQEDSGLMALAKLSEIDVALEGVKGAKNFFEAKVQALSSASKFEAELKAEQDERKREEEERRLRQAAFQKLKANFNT

Experiments:
Test in all cases: log2 fold change, soluble protein after heating vs DMSO (PISA); higher = thermal stabilisation; K562 cells, 10 uM, 30 min; active = over 0.2 and 3.5 SD of the protein, either way, in both replicates (recomputed)
[1] = compound: CS(=O)(=O)c1ccc(-c2cnc(N)c(C(=O)Nc3ccccc3)n2)cc1
Procedure, shortened: (§1)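 Thermal stability values are relative to control samples and come from duplicates. They are expressed as log2 fold changes. For measurement, K562 cells (2×10^6 cells/mL) received 10 μM compound for 30 min, and aliquots were heated for 3 min over 48°C-58°C, pooled, and extracted at 4°C in PBS with 0.5% NP-40. Soluble protein, the supernatant after 21,000xg for 90 min, was quantified by TMTpro 16plex LC-MS/MS with equalised channel sums.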

crizotinib = compound: C[C@@H](Oc1cc(-c2cnn(C3CCNCC3)c2)cnc1N)c1c(Cl)ccc(F)c1Cl [crizotinib]
Procedure, shortened: as §1

[2] = compound: C[C@@H]1COCCN1C2=NC(=NC(=C2)C3(CC3)S(=O)(=O)C)C4=C5C=CNC5=CC=C4
Procedure, shortened: as §1

[3] = compound: C[C@H](C1=CC=C(C=C1)C(=O)NC2=C3C=CNC3=NC=C2)N
Procedure, shortened: as §1

duvelisib = compound: C[C@H](Nc1ncnc2nc[nH]c12)c1cc2cccc(Cl)c2c(=O)n1-c1ccccc1 [duvelisib]
Procedure, shortened: as §1

tozasertib = compound: Cc1cc(Nc2cc(N3CCN(C)CC3)nc(Sc3ccc(NC(=O)C4CC4)cc3)n2)n[nH]1 [tozasertib]
Procedure, shortened: as §1

[4] = compound: Cc1cc(SCc2sc(-c3ccc(C(F)(F)F)cc3)nc2C)ccc1OCC(=O)O
Procedure, shortened: as §1

doramapimod = compound: Cc1ccc(-n2nc(C(C)(C)C)cc2NC(=O)Nc2ccc(OCCN3CCOCC3)c3ccccc23)cc1 [doramapimod]
Procedure, shortened: as §1

ispinesib = compound: Cc1ccc(C(=O)N(CCCN)[C@@H](c2nc3cc(Cl)ccc3c(=O)n2Cc2ccccc2)C(C)C)cc1 [ispinesib]
Procedure, shortened: as §1

gandotinib = compound: Cc1cc(Nc2cc(CN3CCOCC3)c3nc(C)c(Cc4ccc(Cl)cc4F)n3n2)n[nH]1 [gandotinib]
Procedure, shortened: as §1

Measured: log2 fold change

ENTPD5 (UniProt O75356)
inactive: [1] -0.042 | crizotinib -0.018 | [2] 0.041 | [3] -0.061 | duvelisib 0.022 | tozasertib 0.143 | [4] -0.009 | doramapimod 0.041 | ispinesib 0.054

EIF3G (UniProt K7ER90)
inactive: [1] 0.054 | crizotinib 0.02 | [2] 0.08 | [3] -0.124 | duvelisib 0.043 | tozasertib -0.17 | [4] 0.026 | doramapimod -0.007

EIF6 (UniProt P56537)
inactive: [1] 0.004 | crizotinib 0.059 | [2] -0.056 | [3] 0.029 | duvelisib 0.015 | gandotinib 0.087 | tozasertib -0.091 | [4] -0.038 | doramapimod -0.002 | ispinesib -0.003

EEF1AKNMT (UniProt Q8N6R0)
inactive: [1] -0.011 | crizotinib -0.059 | [2] 0.006 | [3] 0.111 | gandotinib -0.09 | [4] 0.153 | doramapimod 0.077 | ispinesib -0.072

EIF3H (UniProt O15372)
inactive: [1] -0.029 | crizotinib -0.08 | [2] -0.077 | [3] 0.036 | duvelisib -0.035 | gandotinib 0.006 | tozasertib 0.032 | [4] 0.021 | doramapimod 0.01 | ispinesib -0.045

ENPP3 (UniProt O14638)
inactive: [1] -0.087 | crizotinib 0.009 | [2] -0.001 | [3] 0.063 | duvelisib -0.171 | gandotinib -0.11 | [4] 0.051 | doramapimod -0.264 | ispinesib -0.096

EFCAB14 (UniProt O75071)
inactive: [1] 0.045 | [2] 0.083 | [3] 0.041 | gandotinib -0.009 | [4] -0.006 | doramapimod -0.01 | ispinesib -0.004
active: crizotinib -0.301

EIF3G (UniProt O75821)
inactive: [1] -0.004 | crizotinib -0.029 | [2] -0.036 | [3] 0.046 | duvelisib -0.04 | gandotinib -0.019 | tozasertib 0.044 | [4] 0.017 | doramapimod 0.053 | ispinesib -0.094

EML3 isoform 2 (UniProt Q32P44)
inactive: [1] 0.074 | crizotinib -0.172 | [2] -0.26 | [3] 0.103 | duvelisib -0.004 | gandotinib 0.128 | tozasertib -0.038 | [4] 0.062 | doramapimod 0.154 | ispinesib -0.236

EEF1G isoform 2 (UniProt P26641)
inactive: [1] 0.011 | crizotinib 0.015 | [2] -0.028 | [3] 0.006 | gandotinib -0.061 | [4] 0.061 | doramapimod -0.013 | ispinesib 0.061

EHD1 (UniProt Q9H4M9)
inactive: [1] 0.026 | crizotinib -0.063 | [2] 0.065 | [3] -0.058 | duvelisib 0.025 | gandotinib -0.057 | tozasertib -0.027 | [4] -0.001 | doramapimod -0.016 | ispinesib -0.031

EMC4 (UniProt Q5J8M3)
inactive: [1] 0 | crizotinib 0.105 | [2] 0.09 | [3] -0.007 | duvelisib 0.137 | gandotinib 0.034 | tozasertib 0.007 | [4] 0.041 | doramapimod 0.079 | ispinesib 0.035

EMC2 (UniProt Q15006)
inactive: [1] -0.014 | crizotinib -0.023 | [2] -0.034 | [3] -0.029 | duvelisib 0.018 | gandotinib -0.054 | tozasertib 0.041 | [4] 0.058 | doramapimod 0 | ispinesib 0.11

EOGT (UniProt Q5NDL2)
inactive: [1] 0.052 | crizotinib 0 | [2] -0.054 | [3] 0.069 | gandotinib -0.003 | [4] -0.137 | doramapimod 0.068 | ispinesib -0.006

EMP3 (UniProt P54852)
inactive: [1] 0.13 | crizotinib 0.102 | [2] 0.071 | [3] -0.168 | duvelisib 0.066 | tozasertib -0.049 | [4] -0.02 | doramapimod -0.031 | ispinesib -0.014

EHBP1L1 (UniProt Q8N3D4)
inactive: [1] 0.034 | crizotinib -0.01 | [2] -0.005 | [3] 0.012 | gandotinib -0.206 | [4] 0.115 | doramapimod -0.018 | ispinesib -0.047

EIF2AK1 (UniProt Q9BQI3)
inactive: [1] 0.023 | crizotinib 0.015 | [2] 0.015 | [3] 0.045 | gandotinib 0.137 | [4] 0.053 | doramapimod 0.068 | ispinesib -0.024

Copied from the results shown (3 entries):
EOGT (UniProt Q5NDL2)
inactive: [1] 0.052 | crizotinib 0 | [2] -0.054 | [3] 0.069 | gandotinib -0.003 | [4] -0.137 | doramapimod 0.068 | ispinesib -0.006

EMP3 (UniProt P54852)
inactive: [1] 0.13 | crizotinib 0.102 | [2] 0.071 | [3] -0.168 | duvelisib 0.066 | tozasertib -0.049 | [4] -0.02 | doramapimod -0.031 | ispinesib -0.014

EHBP1L1 (UniProt Q8N3D4)
inactive: [1] 0.034 | crizotinib -0.01 | [2] -0.005 | [3] 0.012 | gandotinib -0.206 | [4] 0.115 | doramapimod -0.018 | ispinesib -0.047

Later entries.

EML4 (UniProt Q9HC35)
inactive: [1] 0.012 | [2] -0.015 | [3] 0.286 | duvelisib -0.012 | gandotinib 0.024 | tozasertib -0.043 | [4] 0.135 | doramapimod 0.158 | ispinesib -0.154

ENTPD7 (UniProt Q9NQZ7)
inactive: [1] 0.256 | crizotinib 0.084 | [2] -0.037 | [4] 0.014 | doramapimod 0.025

EGLN1 (UniProt Q9GZT9)
inactive: [1] 0.01 | crizotinib -0.029 | [2] -0.064 | [3] -0.035 | gandotinib -0.036 | [4] 0 | doramapimod -0.014 | ispinesib -0.04

EIF3J (UniProt O75822)
inactive: [1] -0.024 | crizotinib -0.012 | [2] 0.009 | [3] -0.035 | gandotinib -0.157 | [4] 0.005 | doramapimod -0.022 | ispinesib 0.099

EIF4E isoform 2 (UniProt P06730)
inactive: [1] 0.198 | crizotinib 0.165 | [3] -0.099 | gandotinib -0.006 | [4] -0.02 | doramapimod -0.045 | ispinesib 0.159
active: [2] 0.4

ELOVL6 (UniProt Q9H5J4)
inactive: [1] -0.072 | crizotinib -0.231 | [3] 0.029 | duvelisib 0.141 | tozasertib -0.117 | [4] -0.11 | doramapimod 0.009 | ispinesib -0.236

EIF4E2 (UniProt O60573)
inactive: [1] 0.151 | crizotinib -0.018 | [2] -0.027 | [3] 0.085 | [4] 0.07 | doramapimod -0.069 | ispinesib -0.087

EEF1AKMT4-ECE2 (UniProt P0DPD8)
inactive: [1] -0.652 | crizotinib 0.056 | duvelisib 0.442 | [4] 0.202 | doramapimod 0.105

EHD2 (UniProt Q9NZN4)
inactive: [1] 0 | crizotinib -0.068 | [2] 0.077 | [3] -0.008 | gandotinib -0.028 | [4] 0.002 | doramapimod 0 | ispinesib -0.007

ELF1 (UniProt P32519)
inactive: [1] 0.093 | crizotinib -0.06 | [2] -0.006 | [3] -0.007 | [4] 0.057 | doramapimod -0.039 | ispinesib -0.038

ELOVL5 isoform 2 (UniProt Q9NYP7)
inactive: [1] 0.038 | [2] 0.048 | [3] -0.004 | gandotinib -0.34 | [4] 0.082 | ispinesib -0.311

ELL (UniProt P55199)
inactive: [1] -0.073 | [2] 0.13 | [3] 0.031 | duvelisib -0.03 | gandotinib -0.036 | tozasertib -0.029 | [4] -0.222 | ispinesib -0.097

ENTPD6 (UniProt O75354)
inactive: [1] 0.144 | [2] 0.04 | [3] 0.107 | duvelisib 0.029 | gandotinib 0.087 | tozasertib -0.167 | [4] -0.019 | ispinesib -0.117

EGR1 (UniProt P18146)
inactive: [1] 0.063 | [2] 0.259 | [3] -0.518 | gandotinib -0.536 | ispinesib 0.36

EED, A0A5F9ZI63
inactive: [1] -0.074 | crizotinib 0.045 | [2] -0.047 | [3] 0.007 | gandotinib 0.07 | [4] -0.013 | doramapimod 0.028 | ispinesib 0.019

EFHD1 (UniProt Q9BUP0)
inactive: [1] 0.038 | [2] -0.178 | [3] 0.055 | duvelisib -0.04 | gandotinib 0.128 | tozasertib -0.09 | [4] -0.168
